PubChem BioAssay AID1259254 | NCATS, 2017
Shown is a random part of about 59,000 reagents. Of all reagents, about 1,550 (2.6%) were called active. 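G2 share is only a proxy for re-replication; each gene was hit by three separate siRNAs, and active genes were retested.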 Raw values vary from plate to plate and are shown uncorrected. Entries without a mark were called inactive. The numbers tell different reagents against one gene apart. The record does not give: the amount of reagent.

Screen: 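Finding genes that stop cells copying their DNA twice in one cycle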 (primary screen)
Cell system: human HCT116 colorectal cancer cells
Reagents: single siRNA against human genes
Timing: 3 days
Measurement: 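Imaged Hoechst DNA stain sorts each cell into a cycle phase by DNA amount; per plate, G2 fraction set to 0% for non-targeting and 100% for GMNN siRNA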
Reading the numbers: G2 robust z-score and G2 cells, % of GMNN control: higher = more G2 cells, more excess DNA replication; raw share of cells in G2: higher = larger share of cells with G2 DNA content
Hit rule: 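Active siRNAs have a G2 robust z of 5 or more median absolute deviations over the median, which in these data means about 38% or higher of GMNN control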

| Target gene | siRNA no. | G2 robust z-score | G2 cells, % of GMNN control | raw share of cells in G2 (%) |
| --- | --- | --- | --- | --- |
| AFF2 | 1 | -1.01 | -4.16 | 3.35 |
| AFF2 | 2 | -0.617 | -1.38 | 3.58 |
| AFF2 | 3 | -0.496 | -0.52 | 3.32 |
| TTLL11 | 1 | -1.14 | -5.04 | 3.55 |
| TTLL11 | 2 | 0.244 | 4.68 | 6.42 |
| TTLL11 | 3 | -0.217 | 1.44 | 5.31 |
| DHRSX | 1 | 0.0989 | 3.66 | 7.7 |
| DHRSX | 2 | 1.23 | 11.6 | 8.96 |
| DHRSX | 3 | 0.994 | 9.96 | 8.89 |
| LYG2 | 1 | -0.614 | -1.35 | 3.09 |
| LYG2 | 2 | -0.953 | -3.74 | 1.85 |
| LYG2 | 3 | 2.78 | 22.5 | 10.4 |
| ZNF287 | 1 | -0.339 | 0.581 | 3 |
| ZNF287 | 2 | 0.403 | 5.8 | 8.53 |
| ZNF287 | 3 | 0.654 | 7.57 | 6.01 |
| MED28 | 1 | 0.132 | 3.89 | 6.06 |
| MED28 | 2 | 0.591 | 7.12 | 7.42 |
| MED28 | 3 | -0.12 | 2.13 | 2.96 |
| PDE7B-AS1 | 1 | -1.07 | -4.54 | 1.91 |
| PDE7B-AS1 | 2 | -0.511 | -0.631 | 3.05 |
| PDE7B-AS1 | 3 | 0.197 | 4.35 | 4.41 |
| NHERF2 | 1 | -1.03 | -4.26 | 3.77 |
| NHERF2 | 2 | 0.0731 | 3.48 | 6.12 |
| NHERF2 | 3 | -0.515 | -0.659 | 4.47 |

As entered above:
TTLL11 #2, G2 cells, % of GMNN control = 4.68
PDE7B-AS1 #2, G2 cells, % of GMNN control: -0.631
Under “raw share of cells in G2 (%)”, MED28 #2 is entered as 7.42
For “G2 cells, % of GMNN control”, NHERF2 #2 is entered as 3.48
For “raw share of cells in G2 (%)”, AFF2 #3 reads 3.32
Under “G2 robust z-score”, PDE7B-AS1 #3 is entered as 0.197

Further results follow.
| Target gene | siRNA no. | G2 robust z-score | G2 cells, % of GMNN control | raw share of cells in G2 (%) |
| --- | --- | --- | --- | --- |
| RNASEH1 | 1 | 0.312 | 5.16 | 8.42 |
| RNASEH1 | 2 | -0.712 | -2.04 | 3.95 |
| RNASEH1 | 3 | 4.26 | 32.9 | 18.5 |
| HFM1 | 1 | -1.1 | -4.75 | 1.9 |
| HFM1 | 2 | -0.389 | 0.234 | 3.04 |
| HFM1 | 3 | -0.0946 | 2.3 | 3.49 |
| DCD | 1 | -0.768 | -2.44 | 3.12 |
| DCD | 2 | -0.529 | -0.757 | 3.1 |
| DCD | 3 | -0.639 | -1.53 | 1.37 |
| CHN2 | 1 | 0.873 | 9.11 | 8.21 |
| CHN2 | 2 | 2.11 | 17.8 | 11.5 |
| CHN2 | 3 | -0.522 | -0.702 | 3.85 |
| LOC643855 | 1 | -0.456 | -0.238 | 3.08 |
| LOC643855 | 2 | -0.665 | -1.71 | 2.99 |
| LOC643855 | 3 | 1.34 | 12.4 | 7.72 |
| RTP5 | 1 | 0.257 | 4.78 | 5.38 |
| RTP5 | 2 | 0.0992 | 3.67 | 4.46 |
| RTP5 | 3 | 0.72 | 8.03 | 5.71 |
| CCDC160 | 1 | 0.173 | 4.18 | 5.42 |
| CCDC160 | 2 | 0.138 | 3.94 | 4.98 |
| CCDC160 | 3 | 2.21 | 18.5 | 11.6 |
| RARS1 | 1 | 0.00725 | 3.02 | 6.02 |
| RARS1 | 2 | -0.956 | -3.76 | 3.24 |
| RARS1 | 3 | -0.659 | -1.67 | 3.59 |
| ASB9P1 | 1 | -0.0639 | 2.52 | 4.89 |
| ASB9P1 | 2 | 0.666 | 7.66 | 5.79 |
| ASB9P1 | 3 | -0.262 | 1.12 | 3.54 |
| EPB41L4B | 1 | -0.827 | -2.85 | 2.58 |
| EPB41L4B | 2 | -0.218 | 1.44 | 4.88 |
| EPB41L4B | 3 | 0.707 | 7.94 | 5.82 |
| COMMD7 | 1 | 1.71 | 15 | 8.85 |
| COMMD7 | 2 | 1.28 | 12 | 6.61 |
| COMMD7 | 3 | -0.00611 | 2.92 | 4.09 |
| UBE2A | 1 | -0.331 | 0.637 | 5.87 |
| UBE2A | 2 | 1.55 | 13.9 | 9.43 |
| UBE2A | 3 | -0.619 | -1.39 | 4.02 |
| TGFBR3L | 1 | 0.00111 | 2.98 | 4.33 |
| TGFBR3L | 2 | 0.496 | 6.46 | 5.09 |
| TGFBR3L | 3 | 1.7 | 14.9 | 9.42 |
| SCARB1 | 1 | 4.98 | 38 | 17.2 |
| SCARB1 | 2 | -0.343 | 0.555 | 5.2 |
| SCARB1 | 3 | 5.2 (active) | 39.6 | 19.1 |
| LINC01561 | 1 | -0.527 | -0.741 | 3.54 |
| LINC01561 | 2 | 4.89 | 37.4 | 18.4 |
| LINC01561 | 3 | 1.21 | 11.5 | 9.54 |
